For the assay, the system named is Salmonella enterica serovar Typhimurium SL1344. The assay can be described thus: bacterial growth OD600 after 18 h with compound and polymyxin B; higher = more bacterial growth (less inhibition). Conditions: 50 µM, Mueller-Hinton broth.

Some of the results follow. Values are raw readings; no control value is given beside them.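 Primary screen: polymyxin B was added at a level permeabilizing Salmonella outer membranes while sparing inner membranes. DMSO wells, both with and without polymyxin B, established maximum growth. Plate-to-plate variation meant each plate was ranked on its own, and the lowest-OD600 compounds were selected as hits.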

We go through 31 molecules from the supplement of paper PMC12889115.

With `CSCCNC(=O)Cc1c2c(n(Cc3ccccc3)c1C)CCCC2=O`, the “bacterial growth OD600” value (polymyxin B 1 µg/mL) came to 1.14.

In the case of `O=C(CN1CCCCC1)N1CCc2[nH]nc(-c3cccc(F)c3)c2C1`, the “bacterial growth OD600” value (polymyxin B 0.75 µg/mL) came out at 0.764.

Take `COc1ccc(CCN2C(=O)O[C@@H]3CN(Cc4cnn(C)c4)C[C@@H]32)cc1`: the “bacterial growth OD600” value (polymyxin B 0.75 µg/mL) worked out at 0.864. Take `OCCC1CN(Cc2cc(F)ccc2F)CCN1C1CCCCC1` (stereo unspecified): the “bacterial growth OD600” value (polymyxin B 1 µg/mL) is 0.921. On to `COCC(=O)Nc1cc(C(=O)N2CCCC(c3ccccc3C)C2)cc2nc(-c3cccnc3)n(C)c12` (stereo unspecified), for which the “bacterial growth OD600” value (polymyxin B 0.75 µg/mL) came to 0.763. Regarding `CCCn1c(C)c(CC(=O)NCCc2nccs2)c2c1CC(C)(C)CC2=O`, the “bacterial growth OD600” value (polymyxin B 0.75 µg/mL) came out at 0.985. `O=C(CCn1cnc2ccccc21)N1CCCC(CNS(=O)(=O)c2cccs2)C1` (stereo unspecified): the “bacterial growth OD600” value (polymyxin B 1 µg/mL) came out at 0.786. With `CN(CC1CCOCC1)C(=O)c1cc(COc2ccc(-n3cncn3)cc2)on1`, the “bacterial growth OD600” value (polymyxin B 1 µg/mL) was 0.882. With `Cc1ccc(OCCN(C)C(=O)C2CC23CCN(Cc2ccc(F)cc2F)CC3)cc1` (stereo unspecified), the “bacterial growth OD600” value (polymyxin B 0.75 µg/mL) came out at 0.789. Same read-out and setting: the result for `O=C(NCCC(c1ccccc1)c1ccccc1)C1CC12CCN(C(=O)c1ccc[n+]([O-])c1)CC2` (stereo unspecified) reads 0.737.

As for `c1cncc(-c2ncc3c(n2)CCCC3NCC2CCCCC2)c1` (stereo unspecified), the “bacterial growth OD600” value (polymyxin B 0.75 µg/mL) was determined as 0.786. For the molecule `CS(=O)(=O)N1CCCC1C(=O)Nc1ccc(-c2cccc(F)c2)cc1` (stereo unspecified), the “bacterial growth OD600” value (polymyxin B 0.75 µg/mL) was determined as 0.569. On to `O=C(NCc1ccccc1)c1cccc(OC2CCN(Cc3ccon3)CC2)c1`, for which the “bacterial growth OD600” value (polymyxin B 1 µg/mL) was 0.958. In the case of `CCN(CCO)C(=O)CC1(c2ccccc2)CC(=O)N(Cc2ccc3c(c2)OCO3)C1=O` (stereo unspecified), for the setting “polymyxin B 0.75 µg/mL”, the “bacterial growth OD600” value is 0.741. For the molecule `COc1cc(-c2nc(CN3CCN(C)C(=O)[C@@H]3C)c(C)o2)ccc1F`, the “bacterial growth OD600” value (polymyxin B 1 µg/mL) was determined as 0.869. For the molecule `Cc1cn2c(C(=O)N3CCCC(CNS(=O)(=O)Cc4ccccc4)C3)csc2n1` (stereo unspecified), where the note is “polymyxin B 0.75 µg/mL”, the “bacterial growth OD600” value is 0.757. As for `O=C(c1ccco1)N1CCCC(N2CCN(Cc3ccc4c(c3)OCO4)CC2)C1` (stereo unspecified), the “bacterial growth OD600” value (polymyxin B 1 µg/mL) was 0.862. For `CC1(C)[C@H]2CC=C(CCNC3CCN(c4ccc(C(=O)N[C@H]5CCCCNC5=O)cc4)CC3)[C@@H]1C2`, the “bacterial growth OD600” value (polymyxin B 0.75 µg/mL) was determined as 0.76. Consider `CC(C)(C)CN1CCC(C2CCN(Cc3nccs3)CC2)C1` (stereo unspecified), for which the “bacterial growth OD600” value (polymyxin B 0.75 µg/mL) came out at 0.754. Regarding `COc1ccc(OC)c(CN2CCN(Cc3ccccc3F)C(CCO)C2)c1` (stereo unspecified), the “bacterial growth OD600” value (polymyxin B 1 µg/mL) was found to be 0.932. As for `COC(=O)C1CCCCN1C(=O)CC1(c2cccc(C(F)(F)F)c2)CC(=O)N(C2CC2)C1=O` (stereo unspecified), the “bacterial growth OD600” value (polymyxin B 0.75 µg/mL) worked out at 0.805. Same read-out and setting: the result for `CNc1ccc(C(=O)N2CCCC(Cn3ccnc3)C2)cn1` (stereo unspecified) reads 0.986. Turning to `Cc1noc(-c2ccc(NCCN3CCCCC3=O)nc2)n1`, where the note is “polymyxin B 1 µg/mL”, the “bacterial growth OD600” value was found to be 1.28. As for `Cc1cc(C)cc(C(=O)NC2CC(=O)N(Cc3ccc(F)cc3)C2)c1` (stereo unspecified), the “bacterial growth OD600” value (polymyxin B 1 µg/mL) amounted to 0.876. Take `Clc1ccc(N2CCN(Cc3nc(-c4cccs4)no3)CC2)nc1`: under “polymyxin B 1 µg/mL”, the “bacterial growth OD600” value is 0.778. Take `Cc1ncc2c(c1CNC(=O)/C=C/c1cccs1)CCN(C(=O)c1cccc(Cn3cccn3)c1)C2`: the “bacterial growth OD600” value (polymyxin B 0.75 µg/mL) stood at 0.796. Turning to `O=C(CC1(c2ccccc2)CC(=O)N(CCCOc2cccnc2)C1=O)N1CCc2ccccc2C1` (stereo unspecified), the “bacterial growth OD600” value (polymyxin B 0.75 µg/mL) came out at 0.042.

Take `CC(C)Oc1ccc(C(=O)N2CCC3(CC2)CC3C(=O)N2CCN(c3ccccn3)CC2)cc1` (stereo unspecified): where the note is “polymyxin B 0.75 µg/mL”, the “bacterial growth OD600” value was determined as 0.927.

As to `COc1ccc(CCCN2C(=O)O[C@@H]3CN(c4ccnc(SC)n4)C[C@@H]32)cc1`, where the note is “polymyxin B 1 µg/mL”, the “bacterial growth OD600” value is 1.04. In the case of `COCCn1cnc2cc(NC(=O)C3CCCCC3)cc(C(=O)N(C)Cc3ccc(F)cc3)c21`, the “bacterial growth OD600” value (polymyxin B 0.75 µg/mL) amounted to 0.731. For `Cc1c(C(C)NC(=O)NCCc2ccccc2)cnn1-c1ccccn1` (stereo unspecified), the “bacterial growth OD600” value (polymyxin B 0.75 µg/mL) was determined as 0.857.
